These are yes or no findings as the source states them, for the method shown. In cells and extracts the contact can be indirect. Some results given as binding are weak or reduced against the parent protein; the word gives no strength.
Biological target: signal transducer and activator of transcription 3 (human (endogenous in HN6 and Cal27)) (UniProt P40763)
Assay: co-IP; lysate of HN6 or Cal27 cells transfected with lincRNA-p21 plasmid or vector for 48 h, incubated with anti-STAT3 monoclonal antibody at 4 °C overnight, then Protein A/G agarose beads for 4 h; immunoblot for Myc and Cyclin D1; endogenous proteins

Protein sequences, listed by entry. Tags and fused reporters are not part of them.
UniProt P40763: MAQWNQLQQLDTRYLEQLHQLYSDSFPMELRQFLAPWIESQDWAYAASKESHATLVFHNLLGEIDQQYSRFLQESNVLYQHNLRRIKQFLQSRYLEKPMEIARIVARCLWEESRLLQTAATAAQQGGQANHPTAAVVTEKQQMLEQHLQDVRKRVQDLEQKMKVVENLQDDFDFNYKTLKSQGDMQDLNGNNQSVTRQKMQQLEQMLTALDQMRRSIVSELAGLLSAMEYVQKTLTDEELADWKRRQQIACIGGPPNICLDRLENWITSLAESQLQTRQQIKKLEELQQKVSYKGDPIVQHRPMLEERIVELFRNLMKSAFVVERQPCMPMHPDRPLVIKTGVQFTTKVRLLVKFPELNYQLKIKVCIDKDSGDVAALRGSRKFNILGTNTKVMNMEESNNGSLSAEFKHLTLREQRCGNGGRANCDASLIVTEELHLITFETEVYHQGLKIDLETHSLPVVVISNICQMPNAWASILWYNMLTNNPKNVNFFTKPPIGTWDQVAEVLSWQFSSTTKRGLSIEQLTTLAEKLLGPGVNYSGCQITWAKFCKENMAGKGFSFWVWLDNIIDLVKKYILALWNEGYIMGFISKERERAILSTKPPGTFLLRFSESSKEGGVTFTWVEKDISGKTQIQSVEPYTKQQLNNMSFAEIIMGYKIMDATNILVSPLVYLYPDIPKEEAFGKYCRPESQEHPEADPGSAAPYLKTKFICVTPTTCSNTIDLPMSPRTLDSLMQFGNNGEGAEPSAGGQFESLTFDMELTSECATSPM
UniProt P24385: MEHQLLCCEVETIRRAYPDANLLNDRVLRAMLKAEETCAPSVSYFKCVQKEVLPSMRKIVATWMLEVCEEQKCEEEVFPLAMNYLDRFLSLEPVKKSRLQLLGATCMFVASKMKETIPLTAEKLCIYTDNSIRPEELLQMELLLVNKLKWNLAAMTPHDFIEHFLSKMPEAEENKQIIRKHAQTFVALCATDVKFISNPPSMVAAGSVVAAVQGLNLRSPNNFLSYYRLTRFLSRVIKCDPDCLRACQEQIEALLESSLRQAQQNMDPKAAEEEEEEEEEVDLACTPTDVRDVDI
UniProt P01106: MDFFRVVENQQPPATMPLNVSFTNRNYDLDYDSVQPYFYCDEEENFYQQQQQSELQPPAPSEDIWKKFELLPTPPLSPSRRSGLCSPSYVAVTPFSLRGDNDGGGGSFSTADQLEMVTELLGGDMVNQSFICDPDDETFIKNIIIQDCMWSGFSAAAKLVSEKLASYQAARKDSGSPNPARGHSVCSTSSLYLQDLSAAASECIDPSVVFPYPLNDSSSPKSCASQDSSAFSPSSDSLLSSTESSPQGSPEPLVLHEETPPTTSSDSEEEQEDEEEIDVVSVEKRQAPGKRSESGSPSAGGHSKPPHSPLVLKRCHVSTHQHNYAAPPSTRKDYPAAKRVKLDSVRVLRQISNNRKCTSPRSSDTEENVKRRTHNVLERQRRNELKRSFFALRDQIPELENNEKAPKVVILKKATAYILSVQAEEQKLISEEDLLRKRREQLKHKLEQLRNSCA

Cyclin D1 (from UniProt P24385 1-295) was tested, and the binding was “binds”.
For Myc (from UniProt P01106 1-454), the binding was “binds”.
